Test results published in publication PMC11232132.
These are yes or no findings as the source states them, for the method shown. In cells and extracts the contact can be indirect. Some binding calls cover weakened binding; strength is not graded here.

Protein sequences, listed by entry. Tags and fused reporters are not part of them. Lines headed by an entry give the natural chain unless they say otherwise; changes in a name come on top.
UniProt Q01094: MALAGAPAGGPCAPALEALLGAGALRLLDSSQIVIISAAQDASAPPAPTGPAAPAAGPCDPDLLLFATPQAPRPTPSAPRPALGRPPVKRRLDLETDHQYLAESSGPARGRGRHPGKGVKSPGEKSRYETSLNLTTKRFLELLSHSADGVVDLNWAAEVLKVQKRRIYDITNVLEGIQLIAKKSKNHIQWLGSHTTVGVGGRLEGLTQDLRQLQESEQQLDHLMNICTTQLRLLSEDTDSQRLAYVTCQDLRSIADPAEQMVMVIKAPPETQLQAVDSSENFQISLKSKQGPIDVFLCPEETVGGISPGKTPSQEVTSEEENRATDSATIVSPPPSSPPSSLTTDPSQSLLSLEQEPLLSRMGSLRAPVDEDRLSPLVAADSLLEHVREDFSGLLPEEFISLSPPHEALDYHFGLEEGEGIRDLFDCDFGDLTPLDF
UniProt Q96FF9: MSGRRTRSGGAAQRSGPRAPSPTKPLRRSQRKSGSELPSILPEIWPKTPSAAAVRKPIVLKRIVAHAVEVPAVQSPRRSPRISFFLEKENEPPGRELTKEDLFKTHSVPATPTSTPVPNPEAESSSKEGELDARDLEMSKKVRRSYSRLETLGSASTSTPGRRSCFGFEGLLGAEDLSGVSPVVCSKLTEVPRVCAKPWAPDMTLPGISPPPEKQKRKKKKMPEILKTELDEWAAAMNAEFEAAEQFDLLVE

Target: E2F transcription factor 1 (E2F1) (human (endogenous in MDA-MB-231)) (UniProt Q01094)
Test: co-IP; MDA-MB-231 cell lysates in RIPA buffer, 1.0 mg total protein; anti-E2F1 at 4 °C overnight, then 20 µL agarose beads at 4 °C for 2 h; Western blot

binding: binds
Substance: Cell division cycle associated 5 (CDCA5) (from UniProt Q96FF9 1-252)
